# Only a part is listed here, and it is no random draw. At the low end of the ranking, values are background and their order means little.
# Protein sequences, listed by entry. Tags and fused reporters are not part of them. Lines headed by an entry give the natural chain unless they say otherwise; changes in a name come on top.
# UniProt Q9Y603: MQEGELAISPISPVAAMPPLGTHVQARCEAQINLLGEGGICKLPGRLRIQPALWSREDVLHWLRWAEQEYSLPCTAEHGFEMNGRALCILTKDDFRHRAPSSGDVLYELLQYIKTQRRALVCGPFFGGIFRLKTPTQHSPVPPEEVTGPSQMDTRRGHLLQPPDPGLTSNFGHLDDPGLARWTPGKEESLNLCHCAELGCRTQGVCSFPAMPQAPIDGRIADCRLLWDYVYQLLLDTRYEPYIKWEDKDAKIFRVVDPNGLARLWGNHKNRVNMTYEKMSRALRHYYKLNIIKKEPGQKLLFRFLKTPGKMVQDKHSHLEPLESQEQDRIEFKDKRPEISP
# Molecular target: ETV7 (UniProt Q9Y603)
# Test: DAPPL (digital affinity profiling via proximity ligation, sequencing)
# Conditions: 10 mM Tris-HCl pH 7.5, 50 mM NaCl, 1 mM DTT, 4% glycerol, room temperature, 30 min; GST-TFs on glutathione beads, 16-mer random dsDNA library, 0.1% …; high values mean tight binding; double strand, one strand shown; scale: fold enrichment (6-mer frequency, TF over GST control)
row,Sequence,binding signal
1,GTTAAT,1.07
2,TTACTA,1.36
3,GCTAGC,1.24
4,AGCATT,1.14
5,AACAAG,1.14
6,TATTTG,1.52
7,CCTCCG,1.2
8,CGGATG,1.41
9,CTTAAT,1.33
10,CTCACG,1.25
11,ACCCTT,1.1
12,ATTTCG,1.26
13,TTAAAT,1.21
14,TAAGCG,0.974
15,TATCGC,1
16,TGTCGC,0.96
17,ATCGTT,0.974
18,ATGTAG,0.934
19,CTCGAA,1.19
20,ACGTCT,1.29

row,Sequence,binding signal
1,GCTATG,1.3
2,CTAGCG,0.991
3,TTTCGG,1.28
4,TTTGTG,1.2
5,CCTGAC,1.46
6,TATGCT,1.32
7,GTAATC,1.17
8,TCCTGT,1.89
9,AATATA,1.36
10,AAAATG,1.28
11,CCCCGA,1.06
12,GACGAC,0.956
13,AACCGG,1.36
14,AGTGTT,1.14
15,CCCCAG,0.852
16,AGTAAA,0.988
17,TTAGGA,0.898
18,AATGAC,1.29
19,CGCGCC,0.997
20,CGCGTT,1.02

# Random excerpt: 2 records from the list.
row,Sequence,binding signal
4,AGCATT,1.14
14,AGTGTT,1.14
